Test results as given in article PMC10897393, “Cellular reprogramming in vivo initiated by SOX4 pioneer factor activity”.
Results are given in words; binding and its absence hold for the method and conditions named. Binding seen in cells or lysates may run through a third protein. Some entries that bind do so weakly or less than the wild type.

By UniProt entry, the sequences of proteins in these tests, tags left out. Where a name states a change or a piece, a line headed by the entry shows the natural chain unless it says otherwise.
UniProt Q06831: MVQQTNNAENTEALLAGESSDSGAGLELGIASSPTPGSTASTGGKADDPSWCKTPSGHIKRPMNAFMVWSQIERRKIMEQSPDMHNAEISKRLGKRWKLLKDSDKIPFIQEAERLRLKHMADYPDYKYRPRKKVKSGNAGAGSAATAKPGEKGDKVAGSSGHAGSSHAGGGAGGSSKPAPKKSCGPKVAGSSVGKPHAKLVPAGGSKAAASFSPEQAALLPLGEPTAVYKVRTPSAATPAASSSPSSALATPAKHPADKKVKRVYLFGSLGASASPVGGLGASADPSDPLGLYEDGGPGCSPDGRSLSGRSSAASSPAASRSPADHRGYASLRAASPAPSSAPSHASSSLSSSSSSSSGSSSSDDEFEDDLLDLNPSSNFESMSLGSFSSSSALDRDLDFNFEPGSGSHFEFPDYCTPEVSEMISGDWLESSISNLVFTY
UniProt O09106: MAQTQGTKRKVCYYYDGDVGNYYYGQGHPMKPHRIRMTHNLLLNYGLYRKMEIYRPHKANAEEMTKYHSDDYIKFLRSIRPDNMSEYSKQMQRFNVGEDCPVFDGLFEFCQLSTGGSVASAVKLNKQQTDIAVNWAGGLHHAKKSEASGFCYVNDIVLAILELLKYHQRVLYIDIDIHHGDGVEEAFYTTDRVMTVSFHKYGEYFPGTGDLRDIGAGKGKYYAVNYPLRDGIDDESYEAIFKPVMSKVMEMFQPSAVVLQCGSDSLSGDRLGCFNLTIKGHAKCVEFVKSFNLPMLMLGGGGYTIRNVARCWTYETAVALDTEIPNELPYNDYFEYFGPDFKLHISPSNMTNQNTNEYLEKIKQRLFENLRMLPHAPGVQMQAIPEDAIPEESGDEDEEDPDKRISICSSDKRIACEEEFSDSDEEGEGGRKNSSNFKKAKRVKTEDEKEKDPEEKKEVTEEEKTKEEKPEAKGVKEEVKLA

Molecular target: HA-tagged SOX4 (mouse), ectopically expressed in hepatocytes from AAV8-TBG-HA-Sox4-P2A-Cre (mouse) (UniProt Q06831)
Assay: co-IP; anti-HA magnetic beads on 500 ug lysate of hepatocytes from AAV8-TBG-HA-Sox4-P2A-Cre-injected mice (2 dpi); AAV8-EV hepatocytes as negative control; lysis in 50 mM Tris pH 7.5, 150 mM NaCl, 0.1% NP-40, 5 mM EDTA, sonicated; RT 30 min; 5 washes in TBS-T; blots with anti-HDAC1, 2 or 3

binding: binds
Substance: HDAC1 (from UniProt O09106 1-482)
